Experimental findings from PMC5801593 (Frontiers in Molecular Biosciences, 2017) are described below.

The chains behind the UniProt entries cited, without tags or fusion partners.
UniProt P0A6B7: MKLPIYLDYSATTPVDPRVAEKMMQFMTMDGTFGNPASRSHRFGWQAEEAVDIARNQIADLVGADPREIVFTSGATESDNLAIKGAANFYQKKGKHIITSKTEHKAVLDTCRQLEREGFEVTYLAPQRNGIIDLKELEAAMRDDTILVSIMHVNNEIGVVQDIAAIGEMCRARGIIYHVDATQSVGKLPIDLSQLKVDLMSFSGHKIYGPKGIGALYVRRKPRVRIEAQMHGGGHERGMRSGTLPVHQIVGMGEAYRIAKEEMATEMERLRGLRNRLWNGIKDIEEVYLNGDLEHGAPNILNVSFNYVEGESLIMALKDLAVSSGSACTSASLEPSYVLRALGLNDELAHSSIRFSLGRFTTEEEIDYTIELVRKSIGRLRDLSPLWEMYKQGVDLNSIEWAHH

Results are given in words; binding and its absence hold for the method and conditions named. Some binding calls cover weakened binding; strength is not graded here.

In this assay the target is T1, cysteine desulfurase IscS (E. coli, UniProt P0A6B7 1-404).
T1 construct: IscS, cysteine desulfurase of E. coli; Dimer by native MS (observed 91,035 Da, predicted 91,037 Da); An adduct of about +304 Da is put down to beta-mercaptoethanol hetero-disulfides; also called wild-type IscS; source: E. coli BL21(DE3), purified (Ni-NTA, TEV cleavage, gel filtration)
The assay can be described thus: cross-linking; mixtures of CyaY and IscS with the same cross-linker (BS3); data not shown; both purified.

B1: CyaY (protein, UniProt P27838 1-106)
chain: MNDSEFHRLADQLWLTIEERLDDWDGDSDIDCEINGGVLTITFENGSKIIINRQEPLHQVWLATKQGGYHFDLKGDEWICDRSGETFWDLLEQAATQQAGETVSFR
Take B1: the binding result is “binds”.
